The source of these data is PubChem BioAssay AID662 (National Center for Advancing Translational Sciences (NCATS), 2007).

Where “and” joins values, the source holds several entries; their conditions need not be identical. Equal entries are not always repeated. Some of the results follow. Further columns of the screen follow, without active or inactive calls. The list favours compounds with an active or inconclusive main result. The note in brackets gives the kind of curve behind each potency; many fits are weak.

This experiment in a line: Cell signaling CRE-BLA (Fsk stim). The following applies: CHO CRE-bla reporter (cAMP response element driving beta-lactamase), forskolin EC10, beta-lactamase ratio; measured here: 460 nm blue channel. A digest of the protocol: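 CRE-bla CHO reporter cells treated with compound titration plus EC10 NKH 477 (water-soluble forskolin), incubated 3 h at 37 °C; CCF4 loading 2 h at room temperature, 460/530 nm emission ratio read, AC50 values derived for positive or negative modulators.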
In general, AC50 refers to the concentration giving half of the maximal activity seen. In the case of `CCOC(=O)[C@H](N)/C=C(\C)CP(=O)(O)O`, the AC50 is 31.6 µM [rising, single point].
Turning to `Cc1coc(C)c1C(=O)CC1(O)C(=O)N(Cc2ccccc2)c2ccccc21` (stereo not given), the AC50 is 3.98 µM [rising, single point].
For the molecule `CC(C)(C)c1nnc(NC(=O)C2CCN(c3ncccn3)CC2)s1`, the AC50 was 1 µM [rising, full curve].
In the case of `O=C(c1nn(Cc2ccccc2)c(=O)c2ccccc12)N1CCN(c2ccccn2)CC1`, the AC50 was 25.1 µM [rising, single point].
Regarding `COc1ccccc1-c1nc(NCCNC(C)=O)c2ccccc2n1`, the half-maximal activity concentration (AC50) is 10 µM [rising, partial curve].
The value for `COc1cc(OC)cc(-c2cc3nc4c(c(N5CCN(c6cnccn6)CC5)n3n2)CCCC4)c1` was 3.16 µM [rising, partial curve].
Take `O=C1/C(=C/c2ccccc2)[C@@H](NC2CCCCC2)c2ccccc21`: the concentration at half-maximal activity (AC50) was 1.58 µM [falling, partial curve].
Take `Cc1cc(C(=O)NCc2cccs2)c(C)o1`: the AC50 was 10 µM [falling, partial curve].
On to `O=C(COc1ccc2c(c1)OCO2)NC12CC3CC(CC(C3)C1)C2`, for which the half-maximal activity concentration (AC50) was 1.26 µM [falling, full curve, poor fit].
As to `CCOc1ccc(Cn2c(SCCCCC#N)nc3c2c(=O)n(C)c(=O)n3C)cc1OCC`, the AC50 is 10 µM [rising, partial curve].
On to `Cc1ccc(CS(=O)(=O)CCC(=O)NCc2ccccn2)cc1`, for which the half-maximal activity concentration (AC50) was 0.501 µM [falling, partial curve].
Take `CC1(C)CC(=O)C2=C(C1)NC(=O)CC2c1ccc(F)cc1` (stereo not given): the AC50 was 1 µM [falling, partial curve, poor fit].
Take `CCN(CC)S(=O)(=O)c1ccc(Cl)c(C(=O)Nc2nncs2)c1`: the AC50 was 1 µM [falling, partial curve, poor fit].
With `COC(=O)CC[C@@H](C)[C@@H]1CC[C@@H]2[C@@H]3CC[C@H]4C[C@@H](O)CC[C@@]4(C)[C@@H]3CC[C@]21C`, the AC50 was 5.01 µM [rising, single point].
Take `COC(=O)c1sc2nc3c(cc2c1N)COC(C)(C)C3`: the AC50 was 10 µM [rising, partial curve].
The figure for `Cc1cccc(N(CC(=O)N2CCCC2)S(=O)(=O)c2ccccc2)c1C` is 5.01 µM [rising, single point]; for `N#Cc1ccc(NC(=O)Nc2ccc(Cl)cc2)cc1` it is 25.1 µM [falling, single point]; for `COc1ccc(N=c2oc3cc(O)ccc3cc2C(=O)NCC2CCCO2)cc1` (stereo not given) it is 12.6 µM [rising, partial curve].
Take `CN1CCN(c2ccc3nc(-c4ccc5nc(-c6ccc(O)cc6)[nH]c5c4)[nH]c3c2)CC1`: the AC50 is 0.794 µM [rising, full curve, poor fit].
As for `Cc1nc(SCc2nc3ccccc3[nH]2)c2oc3ccccc3c2n1`, the AC50 was 0.0126 µM [rising, full curve].
Consider `CC(C)Oc1ccccc1C1CC(=O)Nc2cc3c(cc21)OCCO3` (stereo not given), for which the AC50 is 6.31 µM [rising, partial curve].
For `Cc1cc(C)c(C#N)c(SCC(=O)Nc2ccccc2C(N)=O)n1`, the AC50 was 10 µM [rising, single point].
Consider `CC(Nc1cc(=O)n(C)c(=O)[nH]1)c1ccccc1` (stereo not given), for which the AC50 is 1 µM [falling, full curve, poor fit].
The figure for `CC[C@]1(O)C[C@@H]2CN(CCc3c([nH]c4ccccc34)[C@](C(=O)OC)(c3cc4c(cc3OC)N(C)[C@H]3[C@](O)(C(=O)OC)[C@@H](C(=O)OC)[C@@]5(CC)C=CCN6CC[C@@]43[C@@H]65)C2)C1` is 0.2 µM [rising, full curve].
Take `O=C1C(Cl)=C(NC2CCc3ccccc32)C(=O)c2ncccc21` (stereo not given): the AC50 is 5.01 µM [falling, partial curve].
On to `CN=C(Nc1cc(C)nn1-c1ccccc1)c1ccccc1`, for which the AC50 is 2 µM [falling, partial curve].
Take `CCCC(=O)Nc1ccc(C(=O)O)cc1NC(=O)CCC`: the AC50 is 0.631 µM [rising, full curve, poor fit].
For `Cc1cc(C)c2c(CC(=O)Nc3nccs3)coc2c1`, the AC50 was 5.01 µM [rising, single point].
In the case of `COc1cccc2[nH]c3c(N4CCC(C(N)=O)CC4)ncnc3c12`, the AC50 was 0.1 µM [falling, partial curve, poor fit].
Regarding `Cc1cccn2c(=O)c3cc(C(=O)N4CCCc5ccccc54)n(C)c3nc12`, the AC50 was 0.316 µM [rising, full curve].
The figure for `Cc1cc(C)c2c(n1)nn1c(N3CCN(c4ccccn4)CC3)cc(C)nc21` is 0.794 µM [rising, full curve, poor fit].
The figure for `Cc1sc2nc(CSc3nc4ccccc4c(=O)n3CCCN3CCOCC3)[nH]c(=O)c2c1C` is 5.01 µM [rising, partial curve]; for `COc1ccc(CCNS(=O)(=O)c2ccc3c(c2)OCCO3)cc1OC` it is 6.31 µM [rising, partial curve].
With `Cc1cc(Nc2cc(F)ccc2C)n2nc(C)nc2n1`, the AC50 is 20 µM [rising, single point].
In the case of `CCOc1ccc(N(C)S(=O)(=O)c2ccc3[nH]cc(C(=O)NCC4CCCO4)c(=O)c3c2)cc1` (stereo not given), the AC50 is 2.51 µM [falling, partial curve].
For `Cc1cc(C(=O)OCC(=O)NC2CCS(=O)(=O)C2)c(C)n1-c1ccccc1` (stereo not given), the AC50 was 5.01 µM [rising, single point].
`C=CCn1c(SCC#N)nc2ccccc2c1=O`: the AC50 is 10 µM [rising, partial curve].
With `Cc1ccc(-n2c(=O)c3sccc3n(CC(=O)NCc3ccco3)c2=O)cc1`, the AC50 was 0.251 µM [falling, full curve].
For the molecule `COc1ccc(Cc2nn3c(-c4ccccc4OC)nnc3s2)cc1`, the AC50 is 10 µM [rising, single point].
In the case of `CNc1ccnc(-c2cccc(NS(C)(=O)=O)c2)n1`, the AC50 was 3.16 µM [rising, full curve, poor fit].
The value for `CCOC(=O)CCn1c(CC(=O)OCC)nc2ccccc21` was 3.16 µM [rising, full curve].
For `CCCc1nc(SCc2cccnc2)c2c(=O)n(C)c(=O)n(C)c2n1`, the AC50 was 3.16 µM [rising, full curve].
As for `CC(=O)c1c(N2CCN(Cc3ccccc3)CC2)[nH]c(-c2ccccc2)nc1=S`, the AC50 is 1.26 µM [falling, partial curve].
`COc1ccc(CCNC(=O)c2sc(=S)n(C)c2N)cc1`: the AC50 was 25.1 µM [rising, single point].
Turning to `CCCc1nc(SCC(=O)N2CCC(Cc3ccccc3)CC2)c2c(=O)n(C)c(=O)n(C)c2n1`, the half-maximal activity concentration (AC50) was 12.6 µM [falling, partial curve].
With `CN(C(=O)COC(=O)COc1ccc(Cl)cc1)C1CCCCC1`, the AC50 was 5.01 µM [falling, single point].
On to `COc1cccc(Cn2c(=O)c(CCc3ccccc3)nc3cnc(N4CCNCC4)nc32)c1`, for which the AC50 was 3.16 µM [rising, partial curve].
On to `COc1ccc(CNc2ncncc2-c2ccc3c(c2)OCO3)c(OC)c1`, for which the AC50 is 3.98 µM [rising, full curve].
For `COc1ccccc1NC(=O)CN1CCN(CC(=O)Nc2ccc3c(c2)OCO3)CC1`, the AC50 was 0.398 µM [rising, full curve, poor fit].
As to `Cc1ccc2c(c1)-c1cc(C)nn1C(c1ccc3c(c1)OCO3)N2` (stereo not given), the AC50 is 15.8 µM [rising, partial curve].
As to `COc1ccc(-c2noc(CCC(=O)Nc3cc(OC)ccc3OC)n2)cc1`, the AC50 is 1 µM [falling, partial curve].
The figure for `C=CCN1CCc2cc(O)c(O)cc2[C@H](c2ccccc2)C1` is 31.6 µM [falling, single point]; for `CC(C)n1c2ccccc2c2nc3ccccc3nc21` it is 3.16 µM [rising, partial curve]; for `CC(C)NC(=O)C1CCN(C(=O)c2cc3sccc3n2Cc2ccc(F)cc2)CC1` it is 3.16 µM [falling, single point].
As to `O=C(COC(=O)CN1C(=O)C2CC=CCC2C1=O)Nc1cc(C(F)(F)F)ccc1N1CCOCC1` (stereo not given), the concentration at half-maximal activity (AC50) is 15.8 µM [rising, single point].
As to `COC(=O)N[C@H](c1ccccc1)[C@@]1(C)C[C@@H]1[C@@H](C)C(=O)Nc1ccc2ccccc2c1`, the AC50 is 5.01 µM [falling, partial curve].
The figure for `COc1ccccc1NC(=O)c1cc(S(=O)(=O)N2CCOCC2)ccc1Cl` is 25.1 µM [rising, single point]; for `CCCCC(=O)Nc1ccc(NC(=O)C(C)C)cn1` it is 0.00316 µM [falling, full curve, poor fit]; for `O=C(Cn1cnc2c(cnn2-c2ccc(F)cc2)c1=O)OCc1ccccc1` it is 0.126 µM [falling, full curve, poor fit].
Turning to `Cc1ccccc1-n1c(SCc2ccccn2)nc2n[nH]c(C)c2c1=N`, the concentration at half-maximal activity (AC50) is 0.398 µM [rising, full curve].
Take `COc1ccc(-c2cc(OC)c3c(C)oc(C)c3c(=O)c2)cc1OC`: the AC50 is 12.6 µM [rising, partial curve].
On to `O=C(Cc1ccc(-n2cccc2)cc1)N1CCN(c2ccccc2F)CC1`, for which the AC50 was 25.1 µM [rising, single point].
Take `Cc1ccccc1-c1nc(CN2CCC(C(=O)NCc3cccnc3)CC2)c(C)o1`: the AC50 was 7.94 µM [falling, partial curve].
On to `C[C@H]1C=C2C=C[C@H](C)[C@H](CC[C@@H]3C[C@@H](O)CC(=O)O3)[C@H]2[C@@H](OC(=O)[C@@H](C)CCO)C1`, for which the AC50 was 25.1 µM [rising, single point].
`Cc1c(OCC(F)(F)F)ccnc1CS(=O)c1nc2ccccc2[nH]1` (stereo not given): the AC50 was 25.1 µM [rising, single point] and 12.6 µM [rising, single point].
